Experimental data from the supplement of paper PMC4962491.
“And” between values parts separate entries of the source, which are not always exact repeats. Equal values may be shown once. Where a name gives a salt, the structure may show the parent alone. ± gives the standard deviation of the averaged measurements. The list shows a part of the results, in another mix than the full data. Single values are uncertain here, since repeats match poorly.

Tested on: FaDu
Assay: mitochondrial oxygen consumption rate normalised to cell number, Z score over the library; higher = higher oxygen consumption (negative = OCR reduction)
Conditions: treatment time 24 h, assay medium: 5 mM galactose, 5 mM pyruvate, 4 mM glutamine
Description: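 Primary screen: FaDu cells were incubated 24 h with Pharmakon 1600 / TDI oncology set compounds at 2 or 10 uM. Mitochondrial-specific OCR (basal minus 2 uM antimycin A) was measured on a Seahorse XF96 in assay medium with 5 mM galactose, 5 mM pyruvate and 4 mM glutamine, then corrected for Hoechst cell number and expressed as a Z score […]. Compounds that cut cell number by >66% were excluded. Two repeats.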

Row | SMILES | mitochondrial oxygen consumption rate normalised (2 µM) | mitochondrial oxygen consumption rate normalised (10 µM)
1 | CC(=O)Nc1c(I)c(NC(C)=O)c(I)c(C(=O)O)c1I | 0.308 ± 0.5 | –
2 | CCc1cc(C(N)=S)ccn1 | 0.148 ± 0.48 | –
3 | CC(=O)Nc1ccc(S(=O)(=O)Nc2ccc([N+](=O)[O-])cc2)cc1 | 0.921 ± 0.25 | –
4 | Cc1ccc(C(=O)Nc2ccc(S(=O)(=O)O)c3cc(S(=O)(=O)O)cc(S(=O)(=O)O)c23)cc1NC(=O)c1cccc(NC(=O)Nc2cccc(C(=O)Nc3cc(C(=O)Nc4ccc(S(=O)(=O)O)c5cc(S(=O)(=O)O)cc(S(=O)(=O)O)c45)ccc3C)c2)c1 | -0.6446 ± 0.0052 | –
5 | NC(=O)c1ncn([C@@H]2O[C@H](CO)[C@@H](O)[C@H]2O)c1O | 0.0431 ± 0.81 | –
6 | O=C(N/N=C/c1ccc([N+](=O)[O-])o1)c1ccc(O)cc1 | -0.418 ± 0.44 | –
7 | CN1CCN(C(c2ccccc2)c2ccc(Cl)cc2)CC1 (stereo unspecified) | -2.86 ± 0.1 | –
8 | CC(C)(O/N=C(\C(=O)N[C@@H]1C(=O)N2C(C(=O)[O-])=C(C[n+]3ccccc3)CS[C@H]12)c1csc(N)n1)C(=O)O | -0.139 ± 0.3 | –
9 | Cc1ccc(/C(=C\CN2CCCC2)c2ccccn2)cc1 | 0.486 ± 0.22 | –
10 | CCc1c2c(nc3ccc(OC(=O)N4CCC(N5CCCCC5)CC4)cc13)-c1cc3c(c(=O)n1C2)COC(=O)[C@]3(O)CC | 0.253 ± 0.24 | -1.11 and -2.18
11 | CCc1c2c(nc3ccc(OC(=O)N4CCC(N5CCCCC5)CC4)cc13)-c1cc3c(c(=O)n1C2)COC(=O)[C@]3(O)CC [Irinotecan HCl] | 1.03 ± 0.98 | –
12 | C[C@H]1[C@H](NC(=O)/C(=N\OC(C)(C)C(=O)O)c2csc(N)n2)C(=O)N1S(=O)(=O)O | 0.0973 ± 0.087 | –
13 | CNCCC=C1c2ccccc2CCc2ccccc21 | -0.299 ± 0.4 | –
14 | CCC1=C[C@@H]2CN(C1)Cc1c([nH]c3ccccc13)[C@@](C(=O)OC)(c1cc3c(cc1OC)N(C)[C@H]1[C@@](O)(C(=O)OC)[C@H](OC(C)=O)[C@]4(CC)C=CCN5CC[C@]31[C@@H]54)C2 [Vinorelbine Tartrate] | 1.02 ± 0.14 | –
15 | CNC(=C[N+](=O)[O-])NCCSCc1csc(CN(C)C)n1 | 0.614 ± 0.48 | –
16 | CS(=O)(=O)Nc1ccc([N+](=O)[O-])cc1Oc1ccccc1 | 0.154 ± 0.38 | 0.196 ± 0.72
17 | CCn1cc(C(=O)O)c(=O)c2cc(F)c(N3CCNC(C)C3)c(F)c21 (stereo unspecified) | 0.566 ± 0.04 | –
18 | C[C@]12C=CC(=O)C=C1CC[C@@H]1[C@@H]2C(=O)C[C@@]2(C)[C@H]1CC[C@]2(O)C(=O)CO | -0.286 ± 0.23 | –
19 | CCOC(=O)CCC(=O)O[C@H]1[C@H](O[C@@H]2[C@@H](C)[C@H](O[C@H]3C[C@@](C)(OC)[C@@H](O)[C@H](C)O3)[C@@H](C)C(=O)O[C@H](CC)[C@@](C)(O)[C@H](O)[C@@H](C)C(=O)[C@H](C)C[C@@]2(C)O)O[C@H](C)C[C@@H]1N(C)C | -0.682 ± 0.32 | –
20 | C[C@@H]1O[C@@H]1P(=O)(O)O | 0.19 ± 0.14 | 0.794 ± 0.12
21 | C[C@@H]1CN(c2c(F)c(N)c3c(=O)c(C(=O)O)cn(C4CC4)c3c2F)C[C@H](C)N1 | -0.469 ± 0.24 | –
22 | Cc1ccc(S(=O)(=O)NCl)cc1 | -0.196 ± 0.28 | –
23 | CCn1cc(C(=O)O)c(=O)c2cc(F)c(N3CCN(C)CC3)cc21 | -0.569 ± 0.91 | –
24 | Nc1nc(N)c2nc(CNc3ccc(C(=O)N[C@@H](CCC(=O)O)C(=O)O)cc3)cnc2n1 | 1.11 ± 0.33 | –
25 | CC(C(=O)O)c1cccc(C(=O)c2ccccc2)c1 (stereo unspecified) | 0.337 ± 0.37 | –
26 | O=NN(CCCl)C(=O)NCCCl | 0.71 ± 0.3 | –

Single values from the results shown.
Value of NC(=O)c1ncn([C@@H]2O[C@H](CO)[C@@H](O)[C@H]2O)c1O under mitochondrial oxygen consumption rate normalised (2 µM): 0.0431 ± 0.81
Value of CCOC(=O)CCC(=O)O[C@H]1[C@H](O[C@@H]2[C@@H](C)[C@H](O[C@H]3C[C@@](C)(OC)[C@@H](O)[C@H](C)O3)[C@@H](C)C(=O)O[C@H](CC)[C@@](C)(O)[C@H](O)[C@@H](C)C(=O)[C@H](C)C[C@@]2(C)O)O[C@H](C)C[C@@H]1N(C)C under mitochondrial oxygen consumption rate normalised (2 µM): -0.682 ± 0.32

Additional results follow.

Row | SMILES | mitochondrial oxygen consumption rate normalised (2 µM) | mitochondrial oxygen consumption rate normalised (10 µM)
27 | O=NN(CCCl)C(=O)NCCCl [Carmustine] | -0.466 ± 0.76 | –
28 | CCOC(=O)c1ncn2c1CN(C)C(=O)c1cc(F)ccc1-2 | -0.713 ± 0.15 | –
29 | CCCC1O[C@@H]2C[C@H]3[C@@H]4CCC5=CC(=O)C=C[C@]5(C)[C@H]4[C@@H](O)C[C@]3(C)[C@]2(C(=O)CO)O1 (stereo partly specified) | 0.0867 ± 0.041 | –
30 | CCCCC(CC)COC(=O)C=Cc1ccc(OC)cc1 (stereo unspecified) | 0.887 ± 0.026 | –
31 | COc1ccc2[nH]c([S@@+]([O-])Cc3ncc(C)c(OC)c3C)nc2c1 | 0.152 ± 0.76 | –
32 | CC(C)NCC(O)c1ccc(O)c(O)c1 (stereo unspecified) | -0.62 ± 0.7 | –
33 | CCCCCN(CCCCC)C(=O)C(CCC(=O)O)NC(=O)c1ccc(Cl)c(Cl)c1 (stereo unspecified) | -0.621 ± 0.4 | –
34 | Nc1nc2c(ncn2COCCO)c(=O)[nH]1 | 0.274 ± 3 | –
35 | COc1ccc(C(=O)CC(=O)c2ccc(C(C)(C)C)cc2)cc1 | 0.974 ± 0.23 | –
36 | COc1ccc(C(=O)c2ccccc2)c(O)c1 | -0.072 ± 0.5 | –
37 | COc1c(N2C[C@@H]3CCCN[C@@H]3C2)c(F)cc2c(=O)c(C(=O)O)cn(C3CC3)c12 | 0.253 ± 0.95 | –
38 | COc1ncnc(NS(=O)(=O)c2ccc(N)cc2)c1OC | -0.102 ± 0.3 | –
39 | CC(=O)OCC(=O)[C@@]1(O)[C@H](C)C[C@H]2[C@@H]3CCC4=CC(=O)C=C[C@]4(C)[C@@]3(F)[C@@H](O)C[C@@]21C | 0.233 ± 1.1 | –
40 | CCOc1cc(CC(=O)N[C@@H](CC(C)C)c2ccccc2N2CCCCC2)ccc1C(=O)O | 0.571 ± 0.23 | –
41 | C#C[C@]1(O)CC[C@H]2[C@@H]3CCc4cc(O)ccc4[C@H]3CC[C@@]21C | 0.64 ± 0.083 | –
42 | Nc1c2c(nc3ccccc13)CCCC2 | -0.909 ± 0.74 | –
43 | CCCCC(CC)COC(=O)C(C#N)=C(c1ccccc1)c1ccccc1 (stereo unspecified) | 0.0928 ± 0.67 | –
44 | C/C(=C(\CCOP(=O)(O)O)SC(=O)c1ccccc1)N(C=O)Cc1cnc(C)nc1N | -0.483 ± 0.22 | –
45 | COc1cc2/c(=N/c3ccc(Br)cc3F)nc[nH]c2cc1OCC1CCN(C)CC1 [vandetanib] | 0.386 ± 0.15 | 0.909 ± 1.7
46 | CN(Cc1cnc2nc(N)nc(N)c2n1)c1ccc(C(=O)NC(CCC(=O)O)C(=O)O)cc1 (racemic) | 0.477 ± 0.22 | –
47 | C=C[C@@]1(C)CC(=O)[C@]2(O)[C@@]3(C)[C@@H](O)CCC(C)(C)[C@@H]3[C@H](O)[C@H](OC(C)=O)[C@@]2(C)O1 | 1.98 ± 1.1 | –
48 | CCN(CC)C(=S)SSC(=S)N(CC)CC | 0.398 ± 0.74 | –
49 | CCN(CC)CCOc1ccc2c(c1)C(=O)c1cc(OCCN(CC)CC)ccc1-2 | 0.568 ± 0.32 | –
50 | CC1(C)O[C@@H]2C[C@H]3[C@@H]4CCC5=CC(=O)C=C[C@]5(C)[C@H]4[C@@H](O)C[C@]3(C)[C@]2(C(=O)CO)O1 | -0.0372 ± 0.08 | –
51 | O=C(CCCCCCC(=O)Nc1ccccc1)NO [Vorinostat] | 0.301 ± 0.12 | –
52 | CC[C@H]1OC(=O)C[C@@H](O)[C@H](C)[C@@H](O[C@@H]2O[C@H](C)[C@@H](O[C@H]3C[C@@](C)(O)[C@@H](O)[C@H](C)O3)[C@H](N(C)C)[C@H]2O)[C@@H](CC=O)C[C@@H](C)C(=O)/C=C/C(C)=C/[C@@H]1CO[C@@H]1O[C@H](C)[C@@H](O)[C@@H](OC)[C@H]1OC | -0.143 ± 0.84 | –
